Measured values from publication PMC7849764.
These are yes or no findings as the source states them, for the method shown. In cells and extracts the contact can be indirect.

By UniProt entry, the sequences of proteins in these tests, tags left out.
UniProt Q13158: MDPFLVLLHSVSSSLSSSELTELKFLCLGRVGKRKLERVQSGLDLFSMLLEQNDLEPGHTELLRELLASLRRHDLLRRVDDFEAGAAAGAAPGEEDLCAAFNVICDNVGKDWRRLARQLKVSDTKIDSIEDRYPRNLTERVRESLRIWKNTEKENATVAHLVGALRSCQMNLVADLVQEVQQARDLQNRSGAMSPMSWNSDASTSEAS
UniProt Q14790: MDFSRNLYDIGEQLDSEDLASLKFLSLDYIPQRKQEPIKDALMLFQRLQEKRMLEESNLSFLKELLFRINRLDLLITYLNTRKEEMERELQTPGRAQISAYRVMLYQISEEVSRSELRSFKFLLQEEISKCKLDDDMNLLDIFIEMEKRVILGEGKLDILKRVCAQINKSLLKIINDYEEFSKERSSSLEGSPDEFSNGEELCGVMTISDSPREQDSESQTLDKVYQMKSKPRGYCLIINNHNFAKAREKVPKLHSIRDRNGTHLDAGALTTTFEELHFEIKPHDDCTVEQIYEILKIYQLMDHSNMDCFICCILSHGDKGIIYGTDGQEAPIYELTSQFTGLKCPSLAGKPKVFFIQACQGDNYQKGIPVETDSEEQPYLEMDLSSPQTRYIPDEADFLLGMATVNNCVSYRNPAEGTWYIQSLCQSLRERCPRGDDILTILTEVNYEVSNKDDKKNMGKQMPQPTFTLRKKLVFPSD

What was measured:
[1] = target: Fas-associated protein with death domain (FADD) (human (endogenous in MDA-MB-231)) (UniProt Q13158); experiment: co-IP; anti-caspase-8 co-IP from MDA-MB-231 cells co-treated with purified RL2 and TRAIL for three hours; blot for RL2; only the binder purified
[2] = target: procaspase-8a/b (p55/p53) (human (endogenous in MDA-MB-231)) (UniProt Q14790); experiment: as above
[3] = target: Fas-associated protein with death domain (FADD) (human (endogenous in MDA-MB-231)) (UniProt Q13158); experiment: co-IP; anti-FADD co-IP from MDA-MB-231 cells co-treated with purified RL2 and TRAIL for three hours; blot for RL2; only the binder purified
[4] = target: procaspase-8a/b (p55/p53) (human (endogenous in MDA-MB-231)) (UniProt Q14790); experiment: as above

Measured: binding

B1: RL2 (recombinant lactaptin 2), a recombinant fragment of human κ-Casein (domain or fragment, UniProt P07498 23-134)
chain: QNQKQPACHENDERPFYQKTAPYVPMYYVPNSYPYYGTNLYQRRPAIAINNPYVPRTYYANPAVVRPHAQIPQRQYLPNSHPPTVVRRPNLHPSFIAIPPKKIQDKIIIPTI
no binding: [1] | [2] | [3] | [4]
